Laboratory results: PubChem BioAssay AID504764 (Drosophila RNAi Screening Center, 2011)
Purpose: 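Knock-downs that raise or lower a Notch target reporter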 (primary screen). System: Drosophila Kc167 cells. Reagent: long dsRNA against Drosophila genes. Timing: about 5 days (4 days dsRNA, then 24 h after transfection). Challenge: transfection of constitutively active membrane-tethered Notch lacking the extracellular domain, read 24 h later. Measured: 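Light from a Notch-responsive E(spl)m3 luciferase reporter under active Notch, with control-promoter and no-Notch reporter wells to normalise; raw counts from paired wells a and b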. Scale: induced reporter light, run 1, well a and induced reporter light, run 1, well b: higher = more light from the Notch target reporter with active Notch; control promoter light, run 1, well a and control promoter light, run 1, well b: higher = more light from the viral control promoter (cell number, transfection, viability); uninduced reporter light, run 1, well a: higher = more light from the Notch target reporter without active Notch. Active means: 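Hit if the duplicate-averaged log2 ratio of induced to control-promoter light gives a plate-wise z beyond ±2, or induced to uninduced beyond ±1.8; weak-control or discordant-duplicate wells dropped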. Calls: active = modifier hit (raised or lowered Notch signal); inactive = not a hit.
In all, the deposit lists about 22,000 reagents; shown is a random part of those that have a named target and a result. Over the whole deposit, 403 (1.9%) are marked active. 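Unnormalised raw counts per well; ratio z-scores behind the hit calls and whether each hit raises or lowers signal are not deposited.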 A plus sign joins genes that one reagent is predicted to hit. No sequences are given here. Not given: the amount of reagent.

no.	target gene	dsRNA	induced reporter light, run 1, well a	induced reporter light, run 1, well b	control promoter light, run 1, well a	control promoter light, run 1, well b	uninduced reporter light, run 1, well a	call
1	CG10041	DRSC14179	82585	92735	93235	99335	5385	inactive
2	snoRNA:U31:54Ec + snoRNA:snR38:54Eb + snoRNA:U27:54Eb + 8 more	DRSC06458	49500	28385	40075	44535	4388	inactive
3	unc	DRSC20511	1.05e5	1.50e5	1.67e5	2.09e5	12540	inactive
4	CG14966	DRSC08425	69175	1.33e5	1.86e5	1.73e5	8070	inactive
5	Gr58c	DRSC04136	40515	39145	42285	32790	1705	inactive
6	toc	DRSC00169	78740	80880	99065	1.17e5	6355	inactive
7	toc	DRSC00171	1.03e5	97365	1.27e5	1.40e5	8575	inactive
8	toc	DRSC00842	1.87e5	2.10e5	2.17e5	2.06e5	15200	inactive
9	CG4744	DRSC06887	1.36e5	1.42e5	1.56e5	1.56e5	12110	inactive
10	CG13946	DRSC00364	1.10e5	1.01e5	1.06e5	79680	8755	inactive
11	Pfdn6	DRSC10915	57280	39815	34035	31015	3810	inactive
12	CG4661	DRSC19910	1.22e5	1.26e5	1.79e5	1.96e5	8525	inactive
13	alpha-Est6	DRSC12618	1.29e5	1.05e5	1.15e5	90680	8315	inactive
14	RluA-1	DRSC02240	99060	1.42e5	68420	97540	15405	inactive
15	RluA-1	DRSC03060	1.14e5	1.31e5	67630	87200	16125	inactive
16	CG13055	DRSC09936	1.59e5	2.12e5	2.19e5	1.79e5	9828	inactive
17	CG7448 (retired record)	DRSC11828	1.12e5	1.13e5	62950	87725	8365	inactive
18	CycT	DRSC11124	46415	52800	31170	40555	2555	inactive
19	alpha-Est2	DRSC12614	60715	78745	53555	55425	5315	inactive
20	bero	DRSC03211	45950	48125	39985	37235	1820	inactive
21	CG3651	DRSC03730	66895	57140	46300	70600	4735	inactive
22	noi	DRSC12383	20185	21580	18665	15285	1565	inactive
23	CG4653	DRSC19909	1.58e5	2.12e5	1.51e5	95010	12250	inactive
24	Mettl2	DRSC08398	62685	69360	98270	97685	5325	inactive
25	CG12708	DRSC19490	63020	61520	42730	47635	8880	inactive
26	hdm	DRSC18013	1.45e5	1.37e5	2.78e5	2.39e5	10635	inactive
27	Twdlalpha	DRSC19914	83700	71635	66240	52155	7912	inactive
28	SNCF	DRSC10115	1.66e5	1.49e5	1.81e5	1.57e5	7732	inactive
29	CG12836	DRSC06182	2.24e5	1.84e5	2.53e5	2.44e5	18910	inactive
30	Tdg	DRSC17119	69770	73970	96030	1.02e5	6120	inactive
31	Tdg	DRSC17169	1.30e5	1.07e5	1.58e5	1.34e5	8035	inactive
32	CG9281	DRSC20179	1.35e5	1.25e5	1.51e5	1.39e5	11465	inactive
33	CG15260	DRSC01977	1.58e5	1.63e5	1.45e5	1.66e5	13332	inactive
34	CG10011	DRSC14174	1.31e5	1.33e5	1.71e5	2.04e5	8585	inactive

Laid out differently: 3 of the entries above
| target gene | dsRNA | induced reporter light, run 1, well a | induced reporter light, run 1, well b | control promoter light, run 1, well a | control promoter light, run 1, well b | uninduced reporter light, run 1, well a | call |
| --- | --- | --- | --- | --- | --- | --- | --- |
| toc | DRSC00842 | 1.87e5 | 2.10e5 | 2.17e5 | 2.06e5 | 15200 | inactive |
| CG4744 | DRSC06887 | 1.36e5 | 1.42e5 | 1.56e5 | 1.56e5 | 12110 | inactive |
| CG13946 | DRSC00364 | 1.10e5 | 1.01e5 | 1.06e5 | 79680 | 8755 | inactive |
